In the supplement of paper PMC10849652:
This is one part of the list.

Sequences of proteins named here, by UniProt entry; tags and fusion partners are left off. A change or cut given only in a name is not applied to a line headed by its entry.
UniProt Q2TAP0: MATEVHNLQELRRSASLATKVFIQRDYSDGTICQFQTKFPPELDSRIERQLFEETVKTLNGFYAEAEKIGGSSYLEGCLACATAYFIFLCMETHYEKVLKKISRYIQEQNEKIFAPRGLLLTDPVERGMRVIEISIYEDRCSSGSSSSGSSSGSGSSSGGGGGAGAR
UniProt Q9NQX3: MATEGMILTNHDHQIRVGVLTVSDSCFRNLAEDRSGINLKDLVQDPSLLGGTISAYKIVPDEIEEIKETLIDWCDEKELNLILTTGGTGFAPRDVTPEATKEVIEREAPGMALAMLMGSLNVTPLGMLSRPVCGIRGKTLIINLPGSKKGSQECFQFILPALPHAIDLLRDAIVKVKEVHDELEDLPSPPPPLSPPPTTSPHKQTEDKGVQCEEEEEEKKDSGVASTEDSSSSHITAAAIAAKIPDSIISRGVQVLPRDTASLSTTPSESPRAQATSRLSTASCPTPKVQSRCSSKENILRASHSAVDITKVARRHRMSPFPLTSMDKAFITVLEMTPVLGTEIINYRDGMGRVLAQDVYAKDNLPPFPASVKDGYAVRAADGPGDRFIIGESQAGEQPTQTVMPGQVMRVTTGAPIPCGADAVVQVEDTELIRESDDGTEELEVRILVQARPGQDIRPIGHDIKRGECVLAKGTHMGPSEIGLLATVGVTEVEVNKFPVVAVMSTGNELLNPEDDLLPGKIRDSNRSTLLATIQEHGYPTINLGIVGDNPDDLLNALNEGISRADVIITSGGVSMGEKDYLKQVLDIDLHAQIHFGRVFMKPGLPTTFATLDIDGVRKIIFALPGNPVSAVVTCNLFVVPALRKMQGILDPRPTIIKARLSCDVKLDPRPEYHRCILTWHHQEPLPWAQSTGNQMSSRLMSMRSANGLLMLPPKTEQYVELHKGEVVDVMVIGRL
UniProt P17900: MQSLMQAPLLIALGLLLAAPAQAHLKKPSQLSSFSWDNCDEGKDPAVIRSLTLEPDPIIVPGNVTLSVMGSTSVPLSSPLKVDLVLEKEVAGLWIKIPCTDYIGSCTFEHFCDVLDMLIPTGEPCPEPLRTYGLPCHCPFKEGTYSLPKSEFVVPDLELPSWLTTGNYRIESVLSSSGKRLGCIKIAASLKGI
UniProt Q53EU6: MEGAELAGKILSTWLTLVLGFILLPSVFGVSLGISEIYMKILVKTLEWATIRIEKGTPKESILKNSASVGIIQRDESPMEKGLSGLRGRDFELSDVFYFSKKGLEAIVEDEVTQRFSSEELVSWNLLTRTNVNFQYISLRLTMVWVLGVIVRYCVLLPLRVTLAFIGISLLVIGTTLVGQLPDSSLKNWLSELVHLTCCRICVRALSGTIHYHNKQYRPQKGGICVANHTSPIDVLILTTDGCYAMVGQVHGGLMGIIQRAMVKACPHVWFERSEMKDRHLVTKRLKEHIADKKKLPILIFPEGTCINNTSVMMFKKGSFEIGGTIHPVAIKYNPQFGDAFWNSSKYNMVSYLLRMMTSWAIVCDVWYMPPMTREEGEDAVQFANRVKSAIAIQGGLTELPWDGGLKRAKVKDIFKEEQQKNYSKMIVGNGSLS
UniProt Q96EK6: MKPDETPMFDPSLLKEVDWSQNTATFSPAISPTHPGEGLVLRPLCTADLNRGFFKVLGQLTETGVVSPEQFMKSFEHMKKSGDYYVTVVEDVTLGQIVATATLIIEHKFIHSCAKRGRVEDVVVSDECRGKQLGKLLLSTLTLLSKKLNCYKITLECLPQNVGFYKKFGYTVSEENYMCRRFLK
UniProt Q8N954: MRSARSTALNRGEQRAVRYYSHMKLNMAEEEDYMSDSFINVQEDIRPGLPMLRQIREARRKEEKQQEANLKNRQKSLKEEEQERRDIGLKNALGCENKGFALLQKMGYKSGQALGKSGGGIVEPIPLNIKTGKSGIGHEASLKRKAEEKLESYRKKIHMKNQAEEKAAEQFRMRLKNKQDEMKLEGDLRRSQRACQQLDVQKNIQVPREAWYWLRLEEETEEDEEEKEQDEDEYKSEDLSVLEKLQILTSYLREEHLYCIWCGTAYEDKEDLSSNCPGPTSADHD
UniProt P62873, whole entry, looked up: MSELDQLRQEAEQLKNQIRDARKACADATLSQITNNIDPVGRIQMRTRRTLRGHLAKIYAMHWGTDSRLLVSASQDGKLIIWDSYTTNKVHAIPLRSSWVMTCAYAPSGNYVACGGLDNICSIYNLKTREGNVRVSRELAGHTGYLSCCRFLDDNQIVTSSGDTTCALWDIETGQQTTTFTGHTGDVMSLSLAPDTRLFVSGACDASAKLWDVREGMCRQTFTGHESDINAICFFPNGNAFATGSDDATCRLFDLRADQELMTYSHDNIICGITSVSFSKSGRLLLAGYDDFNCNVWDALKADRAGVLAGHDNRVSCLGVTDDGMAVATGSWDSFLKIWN
UniProt Q03113, whole entry, looked up: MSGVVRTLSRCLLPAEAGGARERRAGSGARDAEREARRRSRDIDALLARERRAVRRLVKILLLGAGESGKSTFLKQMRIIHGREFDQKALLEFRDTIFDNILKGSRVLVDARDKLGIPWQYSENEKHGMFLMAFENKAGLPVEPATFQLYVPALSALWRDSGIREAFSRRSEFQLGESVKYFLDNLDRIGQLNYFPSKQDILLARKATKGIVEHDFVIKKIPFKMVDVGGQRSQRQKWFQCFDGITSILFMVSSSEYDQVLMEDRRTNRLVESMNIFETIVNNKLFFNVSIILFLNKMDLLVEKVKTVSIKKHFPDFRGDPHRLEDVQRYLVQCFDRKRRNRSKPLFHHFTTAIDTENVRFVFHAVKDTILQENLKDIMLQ
UniProt Q5T3I0: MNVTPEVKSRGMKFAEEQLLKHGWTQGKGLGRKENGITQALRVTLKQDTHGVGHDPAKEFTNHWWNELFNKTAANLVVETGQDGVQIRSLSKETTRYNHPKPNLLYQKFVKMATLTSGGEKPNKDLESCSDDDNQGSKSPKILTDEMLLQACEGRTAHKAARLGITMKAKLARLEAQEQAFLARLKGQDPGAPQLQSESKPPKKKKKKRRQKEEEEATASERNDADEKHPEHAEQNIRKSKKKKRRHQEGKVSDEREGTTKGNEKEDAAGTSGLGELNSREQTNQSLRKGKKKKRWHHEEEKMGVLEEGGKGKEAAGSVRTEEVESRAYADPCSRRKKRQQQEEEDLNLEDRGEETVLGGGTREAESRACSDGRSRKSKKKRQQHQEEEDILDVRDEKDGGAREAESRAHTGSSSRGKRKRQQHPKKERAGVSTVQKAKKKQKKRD
UniProt Q9UHW5, whole entry, looked up: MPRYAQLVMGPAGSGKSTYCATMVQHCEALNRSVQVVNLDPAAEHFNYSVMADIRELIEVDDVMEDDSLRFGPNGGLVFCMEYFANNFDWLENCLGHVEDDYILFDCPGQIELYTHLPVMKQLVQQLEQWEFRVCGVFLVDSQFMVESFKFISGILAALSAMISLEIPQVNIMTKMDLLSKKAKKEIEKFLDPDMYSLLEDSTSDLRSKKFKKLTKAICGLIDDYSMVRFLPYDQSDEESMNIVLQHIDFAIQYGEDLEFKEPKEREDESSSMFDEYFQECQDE
UniProt Q96IJ6: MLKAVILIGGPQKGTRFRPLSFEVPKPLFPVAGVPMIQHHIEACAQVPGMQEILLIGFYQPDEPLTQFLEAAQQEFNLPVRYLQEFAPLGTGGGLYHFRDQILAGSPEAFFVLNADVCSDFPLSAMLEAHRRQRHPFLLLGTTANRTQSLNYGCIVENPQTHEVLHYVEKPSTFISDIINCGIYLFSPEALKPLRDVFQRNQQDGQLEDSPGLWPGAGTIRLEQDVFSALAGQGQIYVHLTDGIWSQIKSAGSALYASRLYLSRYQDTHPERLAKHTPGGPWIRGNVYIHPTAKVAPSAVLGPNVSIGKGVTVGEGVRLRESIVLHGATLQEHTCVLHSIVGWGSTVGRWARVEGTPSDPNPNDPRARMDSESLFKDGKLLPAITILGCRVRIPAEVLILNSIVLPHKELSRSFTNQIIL
UniProt Q9Y4H4: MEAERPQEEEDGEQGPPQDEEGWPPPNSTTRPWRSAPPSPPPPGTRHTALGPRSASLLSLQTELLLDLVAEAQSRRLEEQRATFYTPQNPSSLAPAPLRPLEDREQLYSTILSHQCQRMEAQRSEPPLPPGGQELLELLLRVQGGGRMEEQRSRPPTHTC
UniProt Q9NU53: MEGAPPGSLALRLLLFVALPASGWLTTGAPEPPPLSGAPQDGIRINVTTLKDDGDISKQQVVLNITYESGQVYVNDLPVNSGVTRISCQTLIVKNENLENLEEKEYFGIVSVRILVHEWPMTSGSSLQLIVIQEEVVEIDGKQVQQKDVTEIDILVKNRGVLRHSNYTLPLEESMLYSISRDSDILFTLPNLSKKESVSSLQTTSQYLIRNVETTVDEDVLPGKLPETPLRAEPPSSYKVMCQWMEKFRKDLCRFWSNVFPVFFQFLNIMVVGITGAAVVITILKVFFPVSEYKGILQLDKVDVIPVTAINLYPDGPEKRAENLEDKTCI
UniProt Q13439: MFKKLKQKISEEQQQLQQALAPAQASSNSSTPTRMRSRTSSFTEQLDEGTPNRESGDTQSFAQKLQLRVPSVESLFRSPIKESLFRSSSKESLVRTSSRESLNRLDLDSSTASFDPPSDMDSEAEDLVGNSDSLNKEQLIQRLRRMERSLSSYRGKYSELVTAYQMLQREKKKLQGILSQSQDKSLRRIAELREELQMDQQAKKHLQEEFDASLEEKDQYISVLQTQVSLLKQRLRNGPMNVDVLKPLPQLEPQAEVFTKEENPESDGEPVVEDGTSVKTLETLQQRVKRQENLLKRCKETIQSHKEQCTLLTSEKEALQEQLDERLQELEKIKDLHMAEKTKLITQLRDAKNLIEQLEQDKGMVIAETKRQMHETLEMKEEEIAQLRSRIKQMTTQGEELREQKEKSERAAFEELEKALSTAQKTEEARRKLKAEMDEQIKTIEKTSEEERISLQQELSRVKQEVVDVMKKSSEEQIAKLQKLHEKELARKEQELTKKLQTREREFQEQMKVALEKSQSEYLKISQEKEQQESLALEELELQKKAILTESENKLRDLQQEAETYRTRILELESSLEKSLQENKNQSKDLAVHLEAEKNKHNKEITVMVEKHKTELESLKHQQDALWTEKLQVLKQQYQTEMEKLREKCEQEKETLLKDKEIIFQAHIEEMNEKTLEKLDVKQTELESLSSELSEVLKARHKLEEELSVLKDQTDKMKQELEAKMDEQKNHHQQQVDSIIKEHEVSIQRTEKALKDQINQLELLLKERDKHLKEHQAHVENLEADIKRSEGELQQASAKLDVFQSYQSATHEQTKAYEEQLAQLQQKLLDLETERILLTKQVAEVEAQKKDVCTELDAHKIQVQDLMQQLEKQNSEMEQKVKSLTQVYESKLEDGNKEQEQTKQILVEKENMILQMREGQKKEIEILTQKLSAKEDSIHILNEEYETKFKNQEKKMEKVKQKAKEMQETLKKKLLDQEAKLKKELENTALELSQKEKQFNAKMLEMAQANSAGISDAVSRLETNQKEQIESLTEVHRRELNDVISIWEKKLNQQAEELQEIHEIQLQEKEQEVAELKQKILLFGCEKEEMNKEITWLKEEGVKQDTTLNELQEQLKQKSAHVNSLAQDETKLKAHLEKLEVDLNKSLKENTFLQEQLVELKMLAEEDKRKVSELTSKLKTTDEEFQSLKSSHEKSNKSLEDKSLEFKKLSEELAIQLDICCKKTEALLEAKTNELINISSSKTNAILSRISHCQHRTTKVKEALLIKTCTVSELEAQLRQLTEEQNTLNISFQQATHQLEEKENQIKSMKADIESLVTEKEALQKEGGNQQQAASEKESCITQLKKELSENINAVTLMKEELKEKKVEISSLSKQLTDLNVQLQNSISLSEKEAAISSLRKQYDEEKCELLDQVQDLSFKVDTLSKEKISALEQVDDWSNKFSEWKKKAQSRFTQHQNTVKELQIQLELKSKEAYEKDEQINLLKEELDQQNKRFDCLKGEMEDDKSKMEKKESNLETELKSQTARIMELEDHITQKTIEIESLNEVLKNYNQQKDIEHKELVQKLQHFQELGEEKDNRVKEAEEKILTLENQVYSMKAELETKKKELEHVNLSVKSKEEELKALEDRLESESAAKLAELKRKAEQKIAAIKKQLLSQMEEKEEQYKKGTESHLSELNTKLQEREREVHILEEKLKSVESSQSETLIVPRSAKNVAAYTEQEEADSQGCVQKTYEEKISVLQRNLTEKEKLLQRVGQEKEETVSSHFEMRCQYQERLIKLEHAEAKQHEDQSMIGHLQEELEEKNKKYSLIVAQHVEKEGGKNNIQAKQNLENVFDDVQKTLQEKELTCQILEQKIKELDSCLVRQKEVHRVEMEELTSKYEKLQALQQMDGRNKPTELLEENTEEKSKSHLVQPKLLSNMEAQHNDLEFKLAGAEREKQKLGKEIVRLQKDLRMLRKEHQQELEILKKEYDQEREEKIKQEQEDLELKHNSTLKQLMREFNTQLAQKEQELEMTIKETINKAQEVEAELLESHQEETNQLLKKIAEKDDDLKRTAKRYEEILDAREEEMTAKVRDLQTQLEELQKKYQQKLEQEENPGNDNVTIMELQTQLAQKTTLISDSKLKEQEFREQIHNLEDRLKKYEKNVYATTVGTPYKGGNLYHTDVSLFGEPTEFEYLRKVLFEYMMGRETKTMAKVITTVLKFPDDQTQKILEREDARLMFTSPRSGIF

Compound: c1cn2cc(-c3ccc4cn[nH]c4c3)nc(Nc3ccc(N4CCOCC4)cc3)c2n1 [entospletinib]
Assay: log2 fold change, soluble protein after heating vs DMSO (PISA); higher = thermal stabilisation; K562 cells, 10 uM, 30 min; active = over 0.2 and 3.5 SD of the protein, either way, in both replicates (recomputed)
Outline: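 Values are thermal stability changes relative to control samples and are taken from duplicates. They are stated as log2 fold changes. Before quantification by TMTpro 16plex LC-MS/MS with equalised channel sums, K562 cells at 2×10^6 cells/mL were treated with 10 μM compound for 30 min, heated in aliquots for 3 min across 48°C-58°C, pooled, extracted in PBS with 0.5% NP-40 at 4°C, and centrifuged at 21,000xg for 90 min to give the soluble supernatant.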

log2 fold change, inactive:
GOT1 (UniProt P17174) -0.021
GMNN (UniProt O75496) -0.008
GPAA1 (UniProt E9PLG8) 0.043
GID8 (UniProt Q9NWU2) -0.004
GOLGA7B (UniProt Q2TAP0) -0.004
GMPS (UniProt P49915) -0.025
GMPPB isoform 2 (UniProt Q9Y5P6) -0.067
GK (UniProt P32189) 0.006
GPHN isoform 2 (UniProt Q9NQX3) 0.026
GM2A (UniProt P17900) -0.061
GORASP2 isoform 3 (UniProt Q9H8Y8) -0.062
GPN2 (UniProt Q9H9Y4) -0.017
GPAT3 (UniProt Q53EU6) 0.068
GNPNAT1 (UniProt Q96EK6) 0.033
GINS1 (UniProt Q14691) -0.026
GPAA1 (UniProt O43292) -0.018
GPATCH11 (UniProt Q8N954) -0.112
GNB1 (UniProt P62873) 0.005
GRHPR (UniProt Q9UBQ7) 0.027
GNA12 (UniProt Q03113) -0.151
GPATCH4 isoform 3 (UniProt Q5T3I0) 0.116
GPN3 isoform 2 (UniProt Q9UHW5) 0.007
GIPC1 (UniProt O14908) 0.052
GPALPP1 (UniProt Q8IXQ4) -0.009
GOLGA5 (UniProt Q8TBA6) 0.006
GMPPA (UniProt Q96IJ6) -0.01
GPSM3 (UniProt Q9Y4H4) 0.063
GINM1 (UniProt Q9NU53) -0.037
GOLGA4 isoform 5 (UniProt Q13439) 0.05
GIT1 isoform 3 (UniProt Q9Y2X7) 0.265
GNAI2 isoform 4 (UniProt P04899) 0.144
GORASP1 (UniProt Q9BQQ3) 0.153
GLMP (UniProt Q8WWB7) 0.008

For reference, some entries already given.
log2 fold change, inactive:
GK (UniProt P32189) 0.006
GPHN isoform 2 (UniProt Q9NQX3) 0.026
